# Values joined by “and” are separate entries in the source; they are usually repeats but may differ in a detail not shown here. Identical values can stand only once. The list shows a part of the results. Some well-known active drugs show little effect in this data set, so a weak value is uncertain.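 Human mesenchymal stem cells lacking the Werner syndrome gene, which age prematurely, were used. Automated live-cell imaging tracked growth across three biological repeats; the twenty drugs raising growth most relative to vehicle advanced, without a stated fixed cutoff.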
# Test system: Werner syndrome hMSCs (WRN-/-)
# Assay: relative cell density (fold change vs vehicle control); higher = more proliferation (geroprotective)
# Details: concentration (umol/L): 1, 6 days
Structure (SMILES),relative cell density (vehicle: DMSO),relative cell density (vehicle: Water)
CCCNS(=O)(=O)Nc1ncnc(OCCOc2ncc(Br)cn2)c1-c1ccc(Br)cc1,1.03,–
CC[C@]12CCCN3CCc4c(n(c5ccccc45)[C@@](O)(C(=O)OC)C1)[C@@H]32,–,0.73
CCOC(=O)c1ccc(C#Cc2ccc3c(c2)C(C)(C)CCS3)nc1,1.14,–
CC(C)(C)C#Cc1cc(N(C(=O)[C@H]2CC[C@H](C)CC2)[C@H]2CC[C@H](O)CC2)c(C(=O)O)s1,1.33,–
CCC(C)(C)c1ccc(CC(C)CN2C[C@@H](C)O[C@@H](C)C2)cc1 (stereo not given in full),0.95,–
O=c1[nH]c(=O)n([C@H]2C[C@H](O)[C@@H](CO)O2)cc1/C=C/Br,1.51,–
NCCNc1ccc(NCCN)c2c1C(=O)c1ccncc1C2=O,0.913,–
Cn1c(=O)c2c(ncn2CC(O)CO)n(C)c1=O (stereo not given),1.13,–
CCCc1nc(C(C)(C)O)c(C(=O)OCc2oc(=O)oc2C)n1Cc1ccc(-c2ccccc2-c2nnn[nH]2)cc1,1,–
NC(=O)c1cccnc1,1.48,–
Nc1nccs1,0.824,–
S=c1nc[nH]c2nc[nH]c12,1.03,–
CCCCCCCCCCCCCCCC[N+](C)(C)C,0.449,–
C=CCN1CCCC1CNC(=O)c1cc2nn[nH]c2cc1OC (stereo not given),0.877,–
NC(=O)[C@@H](CCC(F)(F)F)N(Cc1ccc(-c2ncon2)cc1F)S(=O)(=O)c1ccc(Cl)cc1,0.96,–
CC1=C(C(=O)O)N2C(=O)[C@@H](NC(=O)[C@H](N)c3ccc(O)cc3)[C@H]2SC1,0.822,–
CC(C)(Oc1ccc(C2CC2(Cl)Cl)cc1)C(=O)O (stereo not given),1.24,–
CCN(CC)C(=O)N1CCN(C)CC1,1.41,–
O=C(O)c1cc(O)c(O)c(O)c1,1.62,–
O=P(O)(O)C(O)(Cc1cccnc1)P(=O)(O)O,–,0.632

Structure (SMILES),relative cell density (vehicle: DMSO),relative cell density (vehicle: Water)
CCN(CCCc1ccccc1)CCCc1ccccc1,1.63,–
COc1cc2c(cc1OC)CN(CCc1ccc(NC(=O)c3cccc4c(=O)c5cccc(OC)c5[nH]c34)cc1)CC2,0.977,–
CC[C@]1(O)C[C@@H]2CN(CCc3c([nH]c4ccccc34)[C@@](C(=O)OC)(c3cc4c(cc3OC)N(C)[C@H]3[C@@](O)(C(=O)OC)[C@H](OC(C)=O)[C@]5(CC)C=CCN6CC[C@]43[C@@H]65)C2)C1,1.13,–
CCc1cc(/C(C)=N/OCc2ccc(C3CCCCC3)c(C(F)(F)F)c2)ccc1CN1CC(C(=O)O)C1,0.887,–
Clc1ccc(COC(Cn2ccnc2)c2ccc(Cl)cc2Cl)cc1 (stereo not given),1,–
NC(=O)NO,1.13,–
Clc1ccccc1C(c1ccccc1)(c1ccccc1)n1ccnc1,1.04,–
O=S(=O)(O)CCSSCCS(=O)(=O)O,1.28,–
CO[C@H]1C(=O)[C@]2(C)[C@@H](OC)C[C@H]3OC[C@@]3(OC(C)=O)[C@H]2[C@H](OC(=O)c2ccccc2)[C@]2(O)C[C@H](OC(=O)[C@H](O)[C@@H](NC(=O)OC(C)(C)C)c3ccccc3)C(C)=C1C2(C)C,0.446,–
Nc1nc(=O)c2c([nH]1)NCC(CNc1ccc(C(=O)N[C@@H](CCC(=O)O)C(=O)O)cc1)N2C=O (stereo not given in full),–,1.12
Oc1c(Cl)cc(Cl)cc1Sc1cc(Cl)cc(Cl)c1O,1.36,–
NC[C@H]1CC[C@H](C(=O)O)CC1,–,1.05
CCCCOc1ccc(CC(=O)NO)cc1,1.09,–
CC(=O)OC(C)C[N+](C)(C)C (stereo not given),1.02,–
Cc1ccc(O)c([C@H](CCN(C(C)C)C(C)C)c2ccccc2)c1,1.08,–
O=C(O)c1cc(=O)c2c(OCC(O)COc3cccc4oc(C(=O)O)cc(=O)c34)cccc2o1,–,1.03
O[C@@H]1CO[C@H]2[C@@H]1OC[C@@H]2O,1.07,–
CCOc1ccc(Cc2cc([C@@H]3O[C@H](CO)[C@@H](O)[C@H](O)[C@H]3O)ccc2Cl)cc1,1.25,–
CN(C)CCN1C(=O)c2cccc3cc(N)cc(c23)C1=O,0.338,–
CN(C)CCC(c1ccccc1)c1ccccn1 (stereo not given),1.06,–

Structure (SMILES),relative cell density (vehicle: DMSO),relative cell density (vehicle: Water)
Cc1c(O)cccc1C(=O)N[C@@H](CSc1ccccc1)[C@H](O)CN1C[C@H]2CCCC[C@H]2C[C@H]1C(=O)NC(C)(C)C,1.22,–
CCOC(=O)c1ccc(O)cc1,0.911,–
CC(=O)O[C@H]1Cc2ccccc2N(C(N)=O)c2ccccc21,1.03,–
COC(=O)Nc1nc2cc(C(=O)c3ccc(F)cc3)ccc2[nH]1,–,0.191
Cc1ccc(-n2[nH]c(C)c(N=Nc3cccc(-c4cccc(C(=O)O)c4)c3O)c2=O)cc1C,1.17,–
Cc1c(OCC(F)(F)F)ccnc1C[S+]([O-])c1nc2ccccc2[nH]1 (stereo not given),1,–
CC(C)(C)NCC(O)c1ccc(O)c(CO)c1 (stereo not given),–,1.07
Cc1onc(-c2ccccc2)c1C(=O)N[C@@H]1C(=O)N2[C@@H]1SC(C)(C)[C@@H]2C(=O)O,–,0.992
CN(C)[C@@H](CCOc1cccc2ccccc12)c1ccccc1,1.38,–
CCCC(CCC)C(=O)O,0.939 and 1.16 and 1.09,–
CN(C)CCCC1(c2ccc(F)cc2)OCc2cc(C#N)ccc21 (stereo not given),0.902,–
CCCCCCCCCC(=O)NC1C(Oc2c3cc4cc2Oc2ccc(cc2Cl)C(OC2OC(CO)C(O)C(O)C2NC(C)=O)C2NC(=O)C(NC(=O)C4NC(=O)C4NC(=O)C(Cc5ccc(c(Cl)c5)O3)NC(=O)C(N)c3ccc(O)c(c3)Oc3cc(O)cc4c3)c3ccc(O)c(c3)-c3c(OC4OC(CO)C(O)C(O)C4O)cc(O)cc3C(C(=O)O)NC2=O)OC(CO)C(O)C1O (stereo not given),–,1
CC[C@H](Nc1ncnc2[nH]cnc12)c1nc2cccc(F)c2c(=O)n1-c1ccccc1,1.21,–
CC(=O)NC1C(O)OC(COS(=O)(=O)O)C(OC2OC(C(=O)O)C(OC3OC(CO)C(OC4OC(C(=O)O)C(O)C(O)C4OS(=O)(=O)O)C(OS(=O)(=O)O)C3NS(=O)(=O)O)C(O)C2OS(=O)(=O)O)C1O (stereo not given),–,1.18
O[C@@H](COc1cccc2ncccc12)CN1CCN(C2c3ccccc3[C@@H]3[C@H](c4ccccc42)C3(F)F)CC1 (stereo not given in full),1.49,–
NS(=O)(=O)NCCNc1nonc1/C(=N/O)Nc1ccc(F)c(Br)c1,1.09,–
CCC(=O)NCC[C@@H]1CCc2ccc3c(c21)CCO3,1.1,–
COC1=CC(=O)C[C@@H](C)[C@]12Oc1c(Cl)c(OC)cc(OC)c1C2=O,1.04,–
COc1cc(N)c(Cl)cc1C(=O)NC1CCN(CCCOc2ccc(F)cc2)CC1OC (stereo not given),1.11,–
CN(C)CCC(c1ccc(Cl)cc1)c1ccccn1 (stereo not given),1.36,–

# Source: the supplement of paper PMC9226226
